Assay results: the supplement of paper PMC12819154, “High-throughput peptide-centric local stability assay extends protein–ligand identification to membrane proteins, tissues and bacteria” (Nature Structural & Molecular Biology, 2025)
This is one part of the list. Most entries show no effect beyond the scatter of the controls.

Protein sequences, listed by entry. Tags and fused reporters are not part of them. Lines headed by an entry give the natural chain unless they say otherwise; changes in a name come on top.
UniProt Q9UQR0: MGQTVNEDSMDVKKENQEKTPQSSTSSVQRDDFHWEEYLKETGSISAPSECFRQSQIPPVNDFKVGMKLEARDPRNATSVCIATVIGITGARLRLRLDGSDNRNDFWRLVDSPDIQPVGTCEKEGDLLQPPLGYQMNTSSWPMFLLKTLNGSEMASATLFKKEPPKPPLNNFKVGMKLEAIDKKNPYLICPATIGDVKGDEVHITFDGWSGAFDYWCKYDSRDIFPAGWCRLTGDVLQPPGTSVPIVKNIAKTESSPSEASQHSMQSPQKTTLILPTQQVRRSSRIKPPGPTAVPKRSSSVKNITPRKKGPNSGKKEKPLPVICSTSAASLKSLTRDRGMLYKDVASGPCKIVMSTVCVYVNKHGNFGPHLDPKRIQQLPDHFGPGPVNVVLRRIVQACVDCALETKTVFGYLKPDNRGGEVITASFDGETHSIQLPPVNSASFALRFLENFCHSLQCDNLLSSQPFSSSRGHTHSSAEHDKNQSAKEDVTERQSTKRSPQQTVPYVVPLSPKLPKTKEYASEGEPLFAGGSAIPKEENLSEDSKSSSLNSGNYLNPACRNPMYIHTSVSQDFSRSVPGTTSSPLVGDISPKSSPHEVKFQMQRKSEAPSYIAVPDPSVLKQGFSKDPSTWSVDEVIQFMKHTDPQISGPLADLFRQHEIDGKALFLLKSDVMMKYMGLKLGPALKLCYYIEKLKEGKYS
UniProt Q9ULV4, whole entry: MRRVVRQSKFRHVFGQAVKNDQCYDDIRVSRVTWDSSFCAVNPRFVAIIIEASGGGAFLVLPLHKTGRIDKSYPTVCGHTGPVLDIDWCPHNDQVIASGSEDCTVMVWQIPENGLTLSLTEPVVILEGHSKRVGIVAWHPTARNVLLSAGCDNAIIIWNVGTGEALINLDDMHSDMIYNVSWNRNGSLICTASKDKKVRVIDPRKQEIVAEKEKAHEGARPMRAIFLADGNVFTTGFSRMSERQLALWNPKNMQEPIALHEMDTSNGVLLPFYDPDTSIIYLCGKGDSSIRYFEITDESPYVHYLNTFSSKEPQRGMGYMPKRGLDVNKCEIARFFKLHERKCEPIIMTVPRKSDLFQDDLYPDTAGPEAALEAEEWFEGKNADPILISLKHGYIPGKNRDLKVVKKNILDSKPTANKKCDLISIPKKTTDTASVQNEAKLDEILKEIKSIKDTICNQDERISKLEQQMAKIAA
UniProt Q9UNQ2: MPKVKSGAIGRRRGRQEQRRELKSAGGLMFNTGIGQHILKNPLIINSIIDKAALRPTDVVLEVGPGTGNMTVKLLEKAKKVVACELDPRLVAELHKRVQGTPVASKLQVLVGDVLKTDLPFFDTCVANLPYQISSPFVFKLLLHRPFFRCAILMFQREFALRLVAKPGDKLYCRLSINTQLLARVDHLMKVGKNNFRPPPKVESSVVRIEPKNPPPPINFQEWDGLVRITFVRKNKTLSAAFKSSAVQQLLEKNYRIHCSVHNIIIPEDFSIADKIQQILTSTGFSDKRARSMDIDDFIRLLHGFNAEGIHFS
UniProt Q9ULK5: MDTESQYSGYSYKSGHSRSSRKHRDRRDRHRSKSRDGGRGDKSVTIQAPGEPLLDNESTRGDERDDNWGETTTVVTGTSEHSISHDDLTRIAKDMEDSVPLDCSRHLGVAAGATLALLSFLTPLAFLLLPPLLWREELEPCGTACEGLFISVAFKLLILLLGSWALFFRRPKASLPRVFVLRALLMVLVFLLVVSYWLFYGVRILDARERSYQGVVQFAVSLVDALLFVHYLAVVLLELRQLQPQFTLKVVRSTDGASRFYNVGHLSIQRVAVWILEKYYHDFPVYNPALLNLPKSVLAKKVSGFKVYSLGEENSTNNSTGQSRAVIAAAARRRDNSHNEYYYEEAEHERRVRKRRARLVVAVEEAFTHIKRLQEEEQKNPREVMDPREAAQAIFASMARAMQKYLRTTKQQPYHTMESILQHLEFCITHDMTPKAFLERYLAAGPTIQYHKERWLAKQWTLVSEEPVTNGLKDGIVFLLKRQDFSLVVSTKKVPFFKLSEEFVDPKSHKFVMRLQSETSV
UniProt Q9Y2V0: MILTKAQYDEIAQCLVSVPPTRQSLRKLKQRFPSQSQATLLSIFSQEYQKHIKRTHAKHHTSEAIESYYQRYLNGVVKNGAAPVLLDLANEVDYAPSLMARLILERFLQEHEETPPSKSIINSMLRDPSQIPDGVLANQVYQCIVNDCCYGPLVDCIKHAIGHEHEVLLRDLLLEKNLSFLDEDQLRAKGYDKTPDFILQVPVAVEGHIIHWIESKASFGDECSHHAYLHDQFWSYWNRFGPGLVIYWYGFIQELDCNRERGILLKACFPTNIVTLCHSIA
UniProt Q9ULR3: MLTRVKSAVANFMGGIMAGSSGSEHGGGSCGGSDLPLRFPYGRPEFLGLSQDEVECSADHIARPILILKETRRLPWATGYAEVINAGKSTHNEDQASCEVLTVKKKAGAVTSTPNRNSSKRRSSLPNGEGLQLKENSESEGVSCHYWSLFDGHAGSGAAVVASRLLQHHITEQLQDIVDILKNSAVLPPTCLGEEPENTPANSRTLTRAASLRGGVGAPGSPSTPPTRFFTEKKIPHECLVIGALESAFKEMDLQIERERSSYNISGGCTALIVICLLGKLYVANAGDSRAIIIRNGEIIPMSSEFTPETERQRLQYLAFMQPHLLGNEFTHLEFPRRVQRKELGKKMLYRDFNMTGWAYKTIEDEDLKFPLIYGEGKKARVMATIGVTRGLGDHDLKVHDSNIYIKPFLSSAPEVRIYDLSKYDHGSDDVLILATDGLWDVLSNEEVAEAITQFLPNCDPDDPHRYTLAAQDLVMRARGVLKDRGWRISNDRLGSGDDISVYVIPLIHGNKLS
UniProt Q9ULC4: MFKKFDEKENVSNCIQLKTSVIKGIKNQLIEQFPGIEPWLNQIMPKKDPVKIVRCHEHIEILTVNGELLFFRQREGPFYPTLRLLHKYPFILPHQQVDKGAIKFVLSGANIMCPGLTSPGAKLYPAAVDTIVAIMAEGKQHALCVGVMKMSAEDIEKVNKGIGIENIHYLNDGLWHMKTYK

Compound: CN[C@@H]1C[C@H]2O[C@@](C)([C@@H]1OC)n1c3ccccc3c3c4c(c5c6ccccc6n2c5c31)C(=O)NC4 [staurosporine]
Assay: log2 fold change of tryptic peptide abundance, ligand vs vehicle (limited proteolysis) (log2 ratio); higher = more trypsin-susceptible (destabilized)
Conditions: ligand concentration: 20 uM; sample: K562 cleared lysate; digestion: 4 min, 22 C (HT-PELSA RT4min, Orbitrap Astral)

Row | Target | log2 fold change
1 | SCML2 (peptide sequence: LTGDVLQPPGTSVPIVK, peptide start residue: 232) (UniProt Q9UQR0) | -0.421
2 | CORO1C (peptide sequence: NILDSKPTANKK, peptide start residue: 408) (UniProt Q9ULV4) | 0.0765
3 | UniProt Q9UNQ2 (peptide sequence: CAILMFQR, peptide start residue: 150) | -0.253
4 | VANGL2 (peptide sequence: LQEEEQK, peptide start residue: 694) (UniProt Q9ULK5) | -0.045
5 | C15orf41 (peptide sequence: HHTSEAIESYYQR, peptide start residue: 59) (UniProt Q9Y2V0) | 0.704
6 | PPM1H (peptide sequence: VHDSNIYIKPFLSSAPEVR, peptide start residue: 399) (UniProt Q9ULR3) | 0.424
7 | MCTS1 (peptide sequence: EGPFYPTLR, peptide start residue: 75) (UniProt Q9ULC4) | 0.271
